# According to PMC7956682:
# Chains of the proteins cited; added tags and fusions are not shown. Lines headed by an entry give the natural chain unless they say otherwise; changes in a name come on top.
# UniProt P29067: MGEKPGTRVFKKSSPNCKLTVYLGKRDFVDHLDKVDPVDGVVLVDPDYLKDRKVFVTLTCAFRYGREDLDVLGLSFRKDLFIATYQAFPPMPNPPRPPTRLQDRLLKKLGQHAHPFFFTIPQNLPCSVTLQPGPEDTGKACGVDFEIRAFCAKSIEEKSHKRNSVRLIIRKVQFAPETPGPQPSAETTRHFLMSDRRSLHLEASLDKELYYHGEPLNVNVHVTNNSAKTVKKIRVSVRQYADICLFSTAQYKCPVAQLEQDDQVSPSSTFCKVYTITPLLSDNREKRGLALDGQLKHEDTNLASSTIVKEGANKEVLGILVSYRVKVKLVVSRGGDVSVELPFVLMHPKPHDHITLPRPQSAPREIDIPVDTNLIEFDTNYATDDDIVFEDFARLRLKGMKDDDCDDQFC
# UniProt P06748: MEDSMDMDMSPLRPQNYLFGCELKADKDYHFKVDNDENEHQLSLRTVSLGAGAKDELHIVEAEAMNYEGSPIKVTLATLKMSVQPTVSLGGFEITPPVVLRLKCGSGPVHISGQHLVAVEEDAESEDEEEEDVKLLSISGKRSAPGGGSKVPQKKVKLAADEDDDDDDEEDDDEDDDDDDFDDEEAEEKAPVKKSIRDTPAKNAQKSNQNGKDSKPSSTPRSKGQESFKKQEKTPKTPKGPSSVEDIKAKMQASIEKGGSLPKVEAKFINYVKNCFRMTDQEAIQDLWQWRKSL
# UniProt Q14978: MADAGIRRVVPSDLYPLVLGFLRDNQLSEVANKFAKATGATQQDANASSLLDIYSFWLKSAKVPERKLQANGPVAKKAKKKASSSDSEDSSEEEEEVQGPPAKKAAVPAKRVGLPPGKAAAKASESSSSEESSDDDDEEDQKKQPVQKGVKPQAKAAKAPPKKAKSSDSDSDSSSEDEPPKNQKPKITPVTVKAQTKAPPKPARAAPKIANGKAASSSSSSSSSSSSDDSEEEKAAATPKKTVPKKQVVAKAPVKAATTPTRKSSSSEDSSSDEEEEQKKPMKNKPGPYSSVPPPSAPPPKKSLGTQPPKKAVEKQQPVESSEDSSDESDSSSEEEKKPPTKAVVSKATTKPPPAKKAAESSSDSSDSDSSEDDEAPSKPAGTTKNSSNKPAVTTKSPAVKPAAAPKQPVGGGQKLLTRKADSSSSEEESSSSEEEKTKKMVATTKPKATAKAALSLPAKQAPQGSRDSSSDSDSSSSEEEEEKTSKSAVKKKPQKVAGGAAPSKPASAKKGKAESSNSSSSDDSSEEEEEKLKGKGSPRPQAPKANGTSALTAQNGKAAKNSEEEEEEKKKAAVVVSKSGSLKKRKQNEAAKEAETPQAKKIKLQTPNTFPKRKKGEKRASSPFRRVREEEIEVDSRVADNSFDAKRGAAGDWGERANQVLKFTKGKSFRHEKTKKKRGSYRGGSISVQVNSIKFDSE
# UniProt O00567: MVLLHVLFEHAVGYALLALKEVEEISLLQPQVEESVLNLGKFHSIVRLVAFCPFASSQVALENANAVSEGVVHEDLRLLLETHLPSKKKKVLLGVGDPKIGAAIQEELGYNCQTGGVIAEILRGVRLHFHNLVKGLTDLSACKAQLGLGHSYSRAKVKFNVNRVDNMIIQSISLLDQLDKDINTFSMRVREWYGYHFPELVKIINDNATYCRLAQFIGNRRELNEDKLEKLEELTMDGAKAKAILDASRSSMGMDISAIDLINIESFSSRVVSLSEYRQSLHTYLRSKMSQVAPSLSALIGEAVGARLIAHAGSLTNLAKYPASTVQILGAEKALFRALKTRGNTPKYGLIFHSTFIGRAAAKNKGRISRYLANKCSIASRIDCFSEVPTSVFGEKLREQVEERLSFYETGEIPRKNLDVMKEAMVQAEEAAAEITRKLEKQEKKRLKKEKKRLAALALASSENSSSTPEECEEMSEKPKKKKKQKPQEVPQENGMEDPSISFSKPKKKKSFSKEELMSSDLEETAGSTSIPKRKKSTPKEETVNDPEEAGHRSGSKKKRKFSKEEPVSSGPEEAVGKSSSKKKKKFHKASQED
# Target: L395Q ARRB2-YFP (UniProt P29067)
# Assay: affinity purification with mass spectrometry; L395Q ARRB2-YFP immunoprecipitated with GFP-Trap magnetic beads (anti-GFP nanobody) from nuclear fractions of transfected HEK293 cells, precleared; heavy formaldehyde labelling, compared with WT ARRB2-YFP from cytosolic fractions (light label); LC-MS/MS
row,Molecule,binding
1,nucleophosmin (NPM1) (from UniProt P06748 1-294),binds
2,"H/ACA ribonucleoprotein complex subunit DKC1 (DKC1) (protein, UniProt O60832 1-514) MADAEVIILPKKHKKKKERKSLPEEDVAEIQHAEEFLIKPESKVAKLDTSQWPLLLKNFDKLNVRTTHYTPLACGSNPLKREIGDYIRTGFINLDKPSNPSSHEVVAWIRRILRVEKTGHSGTLDPKVTGCLIVCIERATRLVKSQQSAGKEYVGIVRLHNAIEGGTQLSRALETLTGALFQRPPLIAAVKRQLRVRTIYESKMIEYDPERRLGIFWVSCEAGTYIRTLCVHLGLLLGVGGQMQELRRVRSGVMSEKDHMVTMHDVLDAQWLYDNHKDESYLRRVVYPLEKLLTSHKRLVMKDSAVNAICYGAKIMLPGVLRYEDGIEVNQEIVVITTKGEAICMAIALMTTAVISTCDHGIVAKIKRVIMERDTYPRKWGLGPKASQKKLMIKQGLLDKHGKPTDSTPATWKQEYVDYSESAKKEVVAEVVKAPQVVAEAAKTAKRKRESESESDETPPAAPQLIKKEKKKSKKDKKAKAGLESGAEPGDGDSDTTKKKKKKKKAKEVELVSE",binds
3,"treacle protein (TCOF1) (protein, UniProt Q13428 1-1488) MAEARKRRELLPLIYHHLLRAGYVRAAREVKEQSGQKCFLAQPVTLLDIYTHWQQTSELGRKRKAEEDAALQAKKTRVSDPISTSESSEEEEEAEAETAKATPRLASTNSSVLGADLPSSMKEKAKAETEKAGKTGNSMPHPATGKTVANLLSGKSPRKSAEPSANTTLVSETEEEGSVPAFGAAAKPGMVSAGQADSSSEDTSSSSDETDVEGKPSVKPAQVKASSVSTKESPARKAAPAPGKVGDVTPQVKGGALPPAKRAKKPEEESESSEEGSESEEEAPAGTRSQVKASEKILQVRAASAPAKGTPGKGATPAPPGKAGAVASQTKAGKPEEDSESSSEESSDSEEETPAAKALLQAKASGKTSQVGAASAPAKESPRKGAAPAPPGKTGPAVAKAQAGKREEDSQSSSEESDSEEEAPAQAKPSGKAPQVRAASAPAKESPRKGAAPAPPRKTGPAAAQVQVGKQEEDSRSSSEESDSDREALAAMNAAQVKPLGKSPQVKPASTMGMGPLGKGAGPVPPGKVGPATPSAQVGKWEEDSESSSEESSDSSDGEVPTAVAPAQEKSLGNILQAKPTSSPAKGPPQKAGPVAVQVKAEKPMDNSESSEESSDSADSEEAPAAMTAAQAKPALKIPQTKACPKKTNTTASAKVAPVRVGTQAPRKAGTATSPAGSSPAVAGGTQRPAEDSSSSEESDSEEEKTGLAVTVGQAKSVGKGLQVKAASVPVKGSLGQGTAPVLPGKTGPTVTQVKAEKQEDSESSEEESDSEEAAASPAQVKTSVKKTQAKANPAAARAPSAKGTISAPGKVVTAAAQAKQRSPSKVKPPVRNPQNSTVLARGPASVPSVGKAVATAAQAQTGPEEDSGSSEEESDSEEEAETLAQVKPSGKTHQIRAALAPAKESPRKGAAPTPPGKTGPSAAQAGKQDDSGSSSEESDSDGEAPAAVTSAQVIKPPLIFVDPNRSPAGPAATPAQAQAASTPRKARASESTARSSSSESEDEDVIPATQCLTPGIRTNVVTMPTAHPRIAPKASMAGASSSKESSRISDGKKQEGPATQVSKKNPASLPLTQAALKVLAQKASEAQPPVARTQPSSGVDSAVGTLPATSPQSTSVQAKGTNKLRKPKLPEVQQATKAPESSDDSEDSSDSSSGSEEDGEGPQGAKSAHTLGPTPSRTETLVEETAAESSEDDVVAPSQSLLSGYMTPGLTPANSQASKATPKLDSSPSVSSTLAAKDDPDGKQEAKPQQAAGMLSPKTGGKEAASGTTPQKSRKPKKGAGNPQASTLALQSNITQCLLGQPWPLNEAQVQASVVKVLTELLEQERKKVVDTTKESSRKGWESRKRKLSGDQPAARTPRSKKKKKLGAGEGGEASVSPEKTSTTSKGKAKRDKASGDVKEKKGKGSLGSQGAKDEPEEELQKGMGTVEGGDQSNPKSKKEKKKSDKRKKDKEKKEKKKKAKKASTKDSESPSQKKKKKKKKTAEQTV",binds

# The next lines start with the values.
row,binding,Molecule
1,binds,nucleolar and coiled-body phosphoprotein (NOLC1) (from UniProt Q14978 1-699)
2,binds,nucleolar protein 56 (NOP56) (from UniProt O00567 1-594)
3,binds,"fibrillarin (FBL) (protein, UniProt P22087 1-321) MKPGFSPRGGGFGGRGGFGDRGGRGGRGGFGGGRGRGGGFRGRGRGGGGGGGGGGGGGRGGGGFHSGGNRGRGRGGKRGNQSGKNVMVEPHRHEGVFICRGKEDALVTKNLVPGESVYGEKRVSISEGDDKIEYRAWNPFRSKLAAAILGGVDQIHIKPGAKVLYLGAASGTTVSHVSDIVGPDGLVYAVEFSHRSGRDLINLAKKRTNIIPVIEDARHPHKYRMLIAMVDVIFADVAQPDQTRIVALNAHTFLRNGGHFVISIKANCIDSTASAEAVFASEVKKMQQENMKPQEQLTLEPYERDHAVVVGVYRPPPKVKN"

# Results are given in words; binding and its absence hold for the method and conditions named. Binding seen in cells or lysates may run through a third protein. Here binding means that the protein was enriched with, or labelled near, the bait; the list need not be complete.
